This is an account of results in paper PMC5371550, “GABAB receptor attenuation of GABAA currents in neurons of the mammalian central nervous system” (Physiological Reports, 2017).

For the experiment, the system named is T1, α-subunit containing GABAA receptor (GABAAR) from human amygdala.
T1 construct: gene GABRA1
Conditions: agonist; -70 mV, pH 7.4, room temperature; total GABA current (includes minor rho component; GABAB receptors also present).

Take `NCCCC(=O)O` [GABA]: the EC50 – broadly, the concentration giving half of the maximal effect – came to 69 µM.
